Values from PubChem BioAssay AID1259424 (University of Nebraska Medical Center, 2018).

Test: 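Rank knockdowns across the genome by resemblance to the KSR1 depletion profile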 (primary screen)
Cell system: human HCT116 colon cancer cells
Reagent: siRNA pool against human genes, 50 nM
Measured: 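Six signature mRNAs by branched-DNA multiplex assay, scaled to two housekeeping genes and non-targeting median, log2; matched to mean KSR1 knockdown profile by Pearson correlation and euclidean distance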
Reading the numbers: mean correlation with KSR1 profile and KSR1 correlation: higher = expression change more like KSR1 knockdown; mean distance from KSR1 profile: higher = expression change less like KSR1 knockdown
Shown is one part, drawn at random, of about 14,000 reagents tested. 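Higher correlation or smaller distance means closer resemblance to KSR1 loss; control wells, including KSR1 knockdowns, recur on many plates.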 Further read-outs or replicates are left out here. Reagent sequences are not shown. Not given: the time to read-out.

Gene	mean correlation with KSR1 profile	mean distance from KSR1 profile	KSR1 correlation, replicate 1	KSR1 correlation, replicate 2
USP28 (ubiquitin specific peptidase 28)	-0.234	1.53	-0.229	-0.24
AKAP9 (A-kinase anchoring protein 9)	0.34	1.16	0.241	0.324
TGM3 (transglutaminase 3)	0.371	2.21	0.543	0.262
ZNF329 (zinc finger protein 329)	0.635	1.21	0.676	0.686
TECR (trans-2,3-enoyl-CoA reductase)	0.101	2.2	0.076	0.252
PIGL (phosphatidylinositol glycan anchor biosynthesis class L)	0.915	1.46	0.907	0.876
NAMPT (nicotinamide phosphoribosyltransferase)	-0.885	1.92	-0.878	-0.693
APOA1 (apolipoprotein A1)	0.0943	2.05	0.00687	0.262
RAB40A (RAB40A, member RAS oncogene family)	0.516	1.32	0.407	0.86
CEP15 (centrosomal protein 15)	-0.776	2.04	-0.917	-0.529
MCM5 (minichromosome maintenance complex component 5)	0.209	2.66	0.254	0.203
RIF1 (replication timing regulatory factor 1)	-0.76	3.45	-0.678	-0.78
KRT84 (keratin 84)	0.886	0.892	0.702	0.798
MPC1	0.0288	2.04	0.0874	0.0628
SLC71A2	0.509	2.83	0.426	0.545
NRDE2 (NRDE-2, necessary for RNA interference, domain containing)	-0.173	3.05	-0.445	-0.118
PI3 (peptidase inhibitor 3)	-0.814	2.24	-0.783	-0.637
ZSCAN21 (zinc finger and SCAN domain containing 21)	0.485	3.48	0.552	0.329
POLD1 (DNA polymerase delta 1, catalytic subunit)	0.609	1.3	0.628	0.593
BSN (bassoon presynaptic cytomatrix protein)	-0.418	1.93	-0.0773	-0.482

Quoted from the listing (2 entries):
Gene	mean correlation with KSR1 profile	mean distance from KSR1 profile	KSR1 correlation, replicate 1	KSR1 correlation, replicate 2
MCM5 (minichromosome maintenance complex component 5)	0.209	2.66	0.254	0.203
RIF1 (replication timing regulatory factor 1)	-0.76	3.45	-0.678	-0.78
